Consider two substances from publication PMC8074145.

By UniProt entry, the sequences of proteins in these tests, tags left out.
UniProt P09382: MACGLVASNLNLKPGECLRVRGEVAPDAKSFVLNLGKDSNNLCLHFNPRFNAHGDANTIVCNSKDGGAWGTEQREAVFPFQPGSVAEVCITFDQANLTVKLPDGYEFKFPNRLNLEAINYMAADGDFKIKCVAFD

Results are given in words; binding and its absence hold for the method and conditions named. Some binding calls cover weakened binding; strength is not graded here.

In assay [1] the target is T1, Asialofetuin (UniProt P12763).
T1 sequence: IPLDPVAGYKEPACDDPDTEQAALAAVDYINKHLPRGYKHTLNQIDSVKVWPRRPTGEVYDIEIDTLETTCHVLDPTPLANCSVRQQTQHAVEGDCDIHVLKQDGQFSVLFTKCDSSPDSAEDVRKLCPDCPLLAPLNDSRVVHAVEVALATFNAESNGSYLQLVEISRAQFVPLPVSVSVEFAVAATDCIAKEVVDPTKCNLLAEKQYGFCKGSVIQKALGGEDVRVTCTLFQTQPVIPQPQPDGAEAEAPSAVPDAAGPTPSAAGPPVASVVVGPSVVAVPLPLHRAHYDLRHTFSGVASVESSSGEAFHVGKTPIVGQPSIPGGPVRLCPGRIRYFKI
As to the kind of experiment: peptide or protein array; asialofetuin printed at 0.03, 0.1, 0.3 and 1 mg/mL on nitrocellulose-coated slides; overlaid 2 h with 20 ug/mL Gal-1 in PBS (5 mM sodium phosphate pH 7.2, 0.2 M NaCl), 0.1% Tween-20, 1 mM DTT, 20 C; detected with biotin-labelled anti-human galectin 1 and AF647-streptavidin; with or without 75 mM lactose plus 1 mg/mL asialofetuin in solution; both purified.

The target in assay [2] is T1, Asialofetuin. As to the kind of experiment: peptide or protein array; asialofetuin printed on nitrocellulose-coated slides; overlaid with biotinylated in-house Gal-1; detected with fluorescently labelled streptavidin, no anti-Gal-1 antibody; both purified.

On to “Human galectin-1 (unlabelled, ATGen) (from UniProt P09382 1-135)”, for which, in assay [1], the binding result was “binds”. In the case of “Recombinant human galectin-1, in-house preparation, biotinylated (from UniProt P09382 1-135)”, in assay [2], the binding result is listed as “binds”.
